Test results from ChEMBL document CHEMBL3885861, “Open TG-GATES”.

Assays:
Rattus norvegicus [1] = organism: Rattus norvegicus; assay: Open TG-GATES - Regimen: Daily Repeat; assay type: toxicity, organism-based, Sprague-Dawley; parameters: regimen Daily Repeat, gender Male, age 6 weeks; conditions: in vivo, po, 60 mg/kg, tissue Plasma, route gavage, dose level Middle, time 14 day
Rattus norvegicus [2] = organism: Rattus norvegicus; assay: Open TG-GATES - Regimen: Single; assay type: toxicity, organism-based, Sprague-Dawley; parameters: regimen Single, gender Male, age 6 weeks; conditions: in vivo, po, 400 mg/kg, 24 h, tissue Plasma, route gavage, dose level High

`CC(C)Cc1ccc(C(C)C(=O)O)cc1` (configuration not stated) [IBUPROFEN] showed a BUN (Rattus norvegicus [1]) of 19.4 mg/dL and a TC (Rattus norvegicus [2]) of 67.6 mg/dL.
